In PubChem BioAssay AID2685 (National Center for Advancing Translational Sciences (NCATS), 2010) one finds cell number change and AC50 data, which are given here for 37 compounds.

This assay can be described thus: qHTS Assay for Lipid Storage Modulators in Drosophila S3 Cells.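 On cell number change: cells counted by Cell Tracker Red CMTPX staining in the red channel.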 The settings on record: BODIPY lipid droplet fluorescence, 18-24 h; for cell number change: measured here: cell count max response, cells fed with added oleic acid. Put shortly:
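Drosophila S3 cells loaded with oleic acid (400 uM, as added) and compounds at several concentrations; lipid droplets imaged by 488-nm laser-scanning cytometry, 500–530 nm intensity and object ratio to cell channel. Percent activity normalized to 20 uM Triacsin C.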
Background: In qHTS, concentration-response curves come from the screen itself.

Setting [1] is: measured here: cell number channel AC50, cells fed with added oleic acid.
The mark [2] stands for this setting: measured here: lipid fluorescence (Fed channel) AC50, cells fed with added oleic acid.

The term AC50 denotes the concentration giving half of the maximal activity seen. A lower AC50 goes with greater potency.

The structures appear in SMILES notation. The list shows a part of the results. The main result of the screen is listed elsewhere. These columns were measured beside it and carry no call. The list favours compounds with an active or inconclusive main result. Potencies come from curve fits of mixed quality, noted in brackets.

For `CCCCNc1c(-c2ccc(SC3CCCCC3)c(OC)c2)nc2ccc(Cl)cn12`, the cell number change is -54.3%. Moreover, under setting [1], the half-maximal activity concentration (AC50) is 14.6 µM [falling, partial curve].
For `Cn1nccc1/C=N\NC(=O)c1ccc(Cl)cc1`, the cell number change was -35.3%.
Turning to `CCOC(=O)c1sc2nc(C)c3c(c2c1N)CC(C)(C)OC3`, the cell number change was 99.5%. In addition, the AC50 under setting [1] is 3.66 µM [rising, full curve]. Under setting [2], the AC50 is 2.06 µM [rising, partial curve].
With `S=c1nccc(-c2ccc(Cl)cc2)[nH]1`, the cell number change amounted to 19%. For the same compound, the AC50 under setting [2] is 0.00517 µM [falling, full curve, poor fit].
Consider `Cc1ccccc1C(=O)NCC(=O)OC(C)C(=O)Nc1cccc(S(=O)(=O)N2CCOCC2)c1` (centres undefined), for which the cell number change was 40.2%. Under setting [1], the AC50 is 32.6 µM [rising, partial curve].
Turning to `Cc1c(C(=O)N2CCOCC2)sc(NC(=O)c2ccccc2F)c1C#N`, the cell number change was -5.71%.
Take `CCCCNC(=O)C1CC(=O)N(C2CCCC2)C1` (centres undefined): the cell number change was 49.6%. For the same compound, the half-maximal activity concentration (AC50) under setting [1] is 3.66 µM [falling, single point]. Under setting [2], the concentration at half-maximal activity (AC50) is 0.82 µM [falling, full curve].
On to `COc1ccc(CCNC(=O)c2sc(=S)n(C)c2N)cc1`, for which the cell number change amounted to 28.4%. In addition, under setting [1], the concentration at half-maximal activity (AC50) is 0.184 µM [rising, single point]. For the same compound, the AC50 under setting [2] is 0.517 µM [rising, full curve, poor fit].
For `COc1ccc(CN2CCc3ccc(NC(=O)CCc4ccccc4OC)cc3C2)c(O)c1`, the cell number change is -23.7%. Also, the concentration at half-maximal activity (AC50) under setting [2] was 23.1 µM [rising, single point].
Turning to `Clc1cccc(Cl)c1/C=C/c1nc2ccccc2[nH]1`, the cell number change amounted to 16.1%.
Take `O=C(COC(=O)/C=C/c1ccc(C(F)(F)F)cc1)NCC1CCCO1` (centres undefined): the cell number change was -25%. Further, under setting [1], the AC50 was 0.0291 µM [falling, full curve, poor fit]. For the same compound, under setting [2], the AC50 was 16.4 µM [falling, single point].
For `COC(=O)c1ccc(C(=O)N(Cc2ccccc2)c2ccccc2)cc1`, the cell number change was -1.85%. Further, the AC50 under setting [2] was 3.55 µM [rising, single point].
Consider `O=C(Cc1ccc(Cl)cc1Cl)Nc1ccncc1Cl`, for which the cell number change is -37%. Further, the concentration at half-maximal activity (AC50) under setting [1] is 14.6 µM [falling, partial curve, poor fit]. The AC50 under setting [2] was 10.3 µM [falling, partial curve, poor fit].
Take `CCC(C)N(C(=O)COC(=O)c1cc([N+](=O)[O-])ccc1N)C1CCS(=O)(=O)C1` (centres undefined): the cell number change stood at 17.6%. The AC50 under setting [2] was 29.1 µM [rising, single point].
On to `CC(=O)Nc1ccc(-c2nnc(SCC(=O)c3ccc4c(c3)Cc3ccccc3-4)n2C)cc1`, for which the cell number change was -63.5%. Moreover, under setting [1], the half-maximal activity concentration (AC50) was 14.6 µM [falling, partial curve]. Besides, under setting [2], the AC50 is 16.4 µM [falling, single point].
Regarding `CSc1ccc(NC(=O)NCCCN2CCC(Cc3ccccc3)CC2)cc1`, the cell number change was determined as 61.1%. Also, the AC50 under setting [1] was 29.1 µM [rising, single point]. Besides, the concentration at half-maximal activity (AC50) under setting [2] is 0.58 µM [falling, single point].
In the case of `O=C(CSc1nnnn1C1CCCCC1)Nc1nc2c(s1)CCCC2`, the AC50 reads like this: under setting [1], 0.092 µM [rising, full curve, poor fit]; under setting [2], 14.6 µM [falling, single point].
`CC(NC(N)=O)C(=O)OCC(=O)c1ccc(-c2ccccc2)cc1` (centres undefined): the cell number change was -2.71%.
Turning to `CCN(CC)S(=O)(=O)c1ccc(C(=O)NNC(=O)c2csc(N3CCOCC3)n2)cc1`, the cell number change was -48%. Under setting [1], the AC50 was 29.1 µM [falling, single point]. Besides, the concentration at half-maximal activity (AC50) under setting [2] was 29.1 µM [falling, single point].
As to `COc1cccc(C2CC(c3cccs3)=NN2C(=O)CSC2=NN3CCCC(=O)N=C3S2)c1OC` (centres undefined), the cell number change was -3.45%. Moreover, under setting [2], the AC50 is 6.51 µM [falling, partial curve].
For `CS(=O)(=O)Cc1nc2ccccc2oc1=O`, the cell number change is -43.3%. The AC50 under setting [1] was 29.1 µM [falling, single point]. In addition, under setting [2], the AC50 was 0.103 µM [falling, full curve, poor fit].
Take `CCOc1ccc(S(=O)(=O)N2CCC(C(=O)NC3CCCC3)CC2)cc1`: the cell number change came to 5.49%. The half-maximal activity concentration (AC50) under setting [2] was 1.84 µM [rising, partial curve, poor fit].
As for `COc1cc(/C=N/NC(=O)NC23CC4CC(CC(C4)C2)C3)ccc1OCC(N)=O`, the cell number change was -5.56%. Besides, the AC50 under setting [2] is 0.103 µM [rising, full curve].
`Cc1nc(N2CCc3ccccc3C2)[nH]c(=O)c1Cc1ccccc1`: the cell number change turned out to be 5.53%.
As to `Cc1cccc(C(=O)NC(=S)Nc2ccc(S(=O)(=O)N3CCN(C)CC3)cc2)c1`, the cell number change amounted to 28.8%. Besides, under setting [1], the concentration at half-maximal activity (AC50) is 0.58 µM [rising, full curve, poor fit].
As for `Cc1ccc(-c2noc(CCCC(=O)NC3CCCC3)n2)cc1`, the cell number change is 2.86%.
Take `CC1(c2ccc3ccccc3c2)NC(=O)NC1=O` (centres undefined): the cell number change amounted to 11.7%. Besides, the AC50 under setting [2] is 29.1 µM [falling, single point].
As for `COC(=O)[C@@]12CCCCN1[C@H](c1ccc(-c3ccc(F)cc3)c(OC)c1)[C@@H]1C(=O)N(C)C(=O)[C@@H]12`, the cell number change is -37.7%. Under setting [1], the AC50 is 23.1 µM [falling, single point]. Besides, the AC50 under setting [2] was 29.1 µM [falling, single point].
On to `CCc1noc(C)c1C(=O)Nc1nc2ccc(OC)cc2s1`, for which the cell number change turned out to be 12.2%.
Consider `Cc1cc2cc(CNC(=O)c3ccc4c(c3)OCO4)ccc2n1C`, for which the concentration at half-maximal activity (AC50) under setting [1] is 2.06 µM [rising, partial curve] and the concentration at half-maximal activity (AC50) under setting [2] was 2.06 µM [rising, partial curve].
Regarding `Cc1ccc(CN2CCNC(=O)C2CC(=O)NCc2cc(C)n(C)n2)cc1` (centres undefined), the cell number change is -0.269%. Besides, the AC50 under setting [2] was 23.1 µM [rising, single point].
Consider `CN(C)CCOC(=O)c1cccc(Br)c1`, for which the cell number change is -8.98%.
On the same count and under the same terms, the same measure for `CCOc1ccc(N(CC(=O)N/N=C/c2cc([N+](=O)[O-])ccc2Cl)S(C)(=O)=O)cc1`: 18.7%.
Regarding `COc1cccc(C(=O)NC2CC3CCCC(C2)N3CC(=O)Nc2ccccc2C(F)(F)F)c1` (centres undefined), the cell number change amounted to 46.1%. In addition, the AC50 under setting [1] was 32.6 µM [rising, single point].
Turning to `Cc1nc(NC(=O)c2ccccc2[N+](=O)[O-])sc1C(=O)N(C)C`, the cell number change is -2.61%. The AC50 under setting [2] was 4.11 µM [falling, full curve].
For the compound `COc1ccc(CC(=O)Nc2nc3ccccc3s2)cc1S(=O)(=O)N1CCOCC1`, the cell number change was -4.27%. Moreover, under setting [2], the AC50 is 1.46 µM [rising, partial curve, poor fit].
Turning to `COC(CNC(=O)C1CCN(S(=O)(=O)c2cccc3nsnc23)CC1)OC`, the cell number change was -13.3%.
